Measured values as given in PMC5489314.
No constants are given. Whether binding was seen depends on the method and setting. In cells and extracts the contact can be indirect. Some binding calls cover weakened binding; strength is not graded here. Values belong to the substance of their own block, whether it stands above or below them.

Sequences of proteins named here, by UniProt entry; tags and fusion partners are left off. A change or cut given only in a name is not applied to a line headed by its entry. A line that says so, or that is headed by a name, gives the form on record, which may keep a tag or linker.
DDR1b-KD-Cys (K655A/T416C) (Q08345-1, form named): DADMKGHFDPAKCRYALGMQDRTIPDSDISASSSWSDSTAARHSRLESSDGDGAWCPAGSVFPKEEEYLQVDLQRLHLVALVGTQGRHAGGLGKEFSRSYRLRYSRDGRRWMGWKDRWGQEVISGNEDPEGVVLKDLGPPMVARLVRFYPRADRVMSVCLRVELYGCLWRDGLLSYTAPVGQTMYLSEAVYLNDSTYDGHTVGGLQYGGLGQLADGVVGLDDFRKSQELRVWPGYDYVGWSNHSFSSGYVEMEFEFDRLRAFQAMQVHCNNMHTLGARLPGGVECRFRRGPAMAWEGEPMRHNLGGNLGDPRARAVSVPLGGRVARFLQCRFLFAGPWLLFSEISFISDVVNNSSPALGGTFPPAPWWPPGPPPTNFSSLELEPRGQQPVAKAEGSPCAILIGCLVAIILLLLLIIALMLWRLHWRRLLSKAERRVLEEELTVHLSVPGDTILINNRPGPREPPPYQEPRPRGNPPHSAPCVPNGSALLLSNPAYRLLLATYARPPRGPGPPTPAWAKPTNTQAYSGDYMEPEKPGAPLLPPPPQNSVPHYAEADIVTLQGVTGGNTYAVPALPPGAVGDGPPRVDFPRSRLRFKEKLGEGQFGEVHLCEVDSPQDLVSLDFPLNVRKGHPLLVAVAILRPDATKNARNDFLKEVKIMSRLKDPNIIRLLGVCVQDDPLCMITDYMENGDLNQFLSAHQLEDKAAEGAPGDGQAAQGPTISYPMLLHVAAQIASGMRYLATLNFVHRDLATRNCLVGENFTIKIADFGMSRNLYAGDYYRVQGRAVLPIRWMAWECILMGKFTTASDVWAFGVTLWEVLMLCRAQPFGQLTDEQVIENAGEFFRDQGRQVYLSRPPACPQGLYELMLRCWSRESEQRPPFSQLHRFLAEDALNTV
DDR1b-L152E/T416C (Q08345-1, form named): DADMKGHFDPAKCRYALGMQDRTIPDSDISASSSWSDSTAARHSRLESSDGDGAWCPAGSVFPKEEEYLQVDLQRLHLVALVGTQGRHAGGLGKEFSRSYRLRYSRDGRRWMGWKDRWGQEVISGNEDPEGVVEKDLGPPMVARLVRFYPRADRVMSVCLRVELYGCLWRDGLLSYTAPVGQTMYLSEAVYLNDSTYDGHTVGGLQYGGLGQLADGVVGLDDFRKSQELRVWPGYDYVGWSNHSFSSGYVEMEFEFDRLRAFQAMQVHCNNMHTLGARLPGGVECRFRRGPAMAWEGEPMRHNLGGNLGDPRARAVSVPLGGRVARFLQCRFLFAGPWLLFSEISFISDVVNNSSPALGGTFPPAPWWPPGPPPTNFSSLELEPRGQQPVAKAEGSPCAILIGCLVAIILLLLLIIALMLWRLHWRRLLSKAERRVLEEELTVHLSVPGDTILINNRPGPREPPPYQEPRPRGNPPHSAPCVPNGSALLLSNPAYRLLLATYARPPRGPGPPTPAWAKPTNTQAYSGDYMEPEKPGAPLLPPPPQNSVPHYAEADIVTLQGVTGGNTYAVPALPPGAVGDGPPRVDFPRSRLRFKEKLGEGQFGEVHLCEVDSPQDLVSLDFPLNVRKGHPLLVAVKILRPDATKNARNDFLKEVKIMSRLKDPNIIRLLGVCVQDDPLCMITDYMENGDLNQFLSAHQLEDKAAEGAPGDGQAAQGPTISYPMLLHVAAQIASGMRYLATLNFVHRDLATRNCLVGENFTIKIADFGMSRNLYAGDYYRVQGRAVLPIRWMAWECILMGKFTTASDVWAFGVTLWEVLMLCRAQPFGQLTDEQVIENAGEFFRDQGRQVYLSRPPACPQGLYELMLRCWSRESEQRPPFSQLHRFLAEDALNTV
DDR1b-R32E/T416C (Q08345-1, form named): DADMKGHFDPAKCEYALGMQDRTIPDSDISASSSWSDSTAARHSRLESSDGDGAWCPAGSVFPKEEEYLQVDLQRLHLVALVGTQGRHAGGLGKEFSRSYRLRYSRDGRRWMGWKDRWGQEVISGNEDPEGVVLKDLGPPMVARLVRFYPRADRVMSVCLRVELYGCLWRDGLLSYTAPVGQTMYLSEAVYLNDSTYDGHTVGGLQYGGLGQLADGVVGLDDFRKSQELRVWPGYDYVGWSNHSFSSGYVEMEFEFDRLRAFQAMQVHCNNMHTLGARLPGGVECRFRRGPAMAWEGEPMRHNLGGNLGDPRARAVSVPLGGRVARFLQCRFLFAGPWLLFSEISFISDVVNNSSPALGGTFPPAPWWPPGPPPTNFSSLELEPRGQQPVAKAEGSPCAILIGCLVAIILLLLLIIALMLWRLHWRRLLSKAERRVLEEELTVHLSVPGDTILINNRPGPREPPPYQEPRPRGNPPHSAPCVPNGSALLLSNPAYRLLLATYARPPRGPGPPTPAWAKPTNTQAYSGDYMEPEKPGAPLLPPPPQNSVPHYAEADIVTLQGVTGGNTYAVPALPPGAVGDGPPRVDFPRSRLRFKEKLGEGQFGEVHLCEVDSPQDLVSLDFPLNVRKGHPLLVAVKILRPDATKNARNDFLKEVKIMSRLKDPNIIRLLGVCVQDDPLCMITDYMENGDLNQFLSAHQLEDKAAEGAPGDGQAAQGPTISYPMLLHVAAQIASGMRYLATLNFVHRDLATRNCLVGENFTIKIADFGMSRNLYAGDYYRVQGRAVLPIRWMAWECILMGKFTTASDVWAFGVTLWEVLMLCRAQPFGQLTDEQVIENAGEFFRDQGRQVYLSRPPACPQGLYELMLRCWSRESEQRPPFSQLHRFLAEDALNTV
DDR1b-W53A/T416C (Q08345-1, form named): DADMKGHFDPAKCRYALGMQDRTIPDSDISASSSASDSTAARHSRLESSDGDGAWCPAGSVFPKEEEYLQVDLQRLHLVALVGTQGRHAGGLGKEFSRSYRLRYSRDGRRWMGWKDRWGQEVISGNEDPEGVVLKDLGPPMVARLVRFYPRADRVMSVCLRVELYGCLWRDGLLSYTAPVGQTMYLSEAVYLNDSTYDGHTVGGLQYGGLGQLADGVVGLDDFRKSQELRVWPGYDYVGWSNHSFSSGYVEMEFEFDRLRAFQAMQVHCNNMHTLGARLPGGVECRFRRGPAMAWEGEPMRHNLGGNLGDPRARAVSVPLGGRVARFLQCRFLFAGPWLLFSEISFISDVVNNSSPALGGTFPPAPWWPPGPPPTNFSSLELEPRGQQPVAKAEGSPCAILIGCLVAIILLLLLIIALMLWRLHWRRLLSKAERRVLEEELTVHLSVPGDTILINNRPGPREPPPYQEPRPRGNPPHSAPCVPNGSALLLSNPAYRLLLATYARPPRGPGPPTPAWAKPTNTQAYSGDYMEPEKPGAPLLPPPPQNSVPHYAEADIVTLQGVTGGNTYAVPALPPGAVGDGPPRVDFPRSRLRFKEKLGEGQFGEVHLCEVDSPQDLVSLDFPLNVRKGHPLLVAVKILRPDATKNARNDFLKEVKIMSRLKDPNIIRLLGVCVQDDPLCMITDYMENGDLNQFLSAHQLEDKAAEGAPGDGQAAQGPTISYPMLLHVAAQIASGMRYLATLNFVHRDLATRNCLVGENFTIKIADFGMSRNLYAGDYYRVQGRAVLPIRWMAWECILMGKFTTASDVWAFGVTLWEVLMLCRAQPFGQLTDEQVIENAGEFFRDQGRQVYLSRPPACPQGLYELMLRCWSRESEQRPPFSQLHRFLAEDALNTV
DDR1b-ΔECD-Cys (Q08345-1, form named): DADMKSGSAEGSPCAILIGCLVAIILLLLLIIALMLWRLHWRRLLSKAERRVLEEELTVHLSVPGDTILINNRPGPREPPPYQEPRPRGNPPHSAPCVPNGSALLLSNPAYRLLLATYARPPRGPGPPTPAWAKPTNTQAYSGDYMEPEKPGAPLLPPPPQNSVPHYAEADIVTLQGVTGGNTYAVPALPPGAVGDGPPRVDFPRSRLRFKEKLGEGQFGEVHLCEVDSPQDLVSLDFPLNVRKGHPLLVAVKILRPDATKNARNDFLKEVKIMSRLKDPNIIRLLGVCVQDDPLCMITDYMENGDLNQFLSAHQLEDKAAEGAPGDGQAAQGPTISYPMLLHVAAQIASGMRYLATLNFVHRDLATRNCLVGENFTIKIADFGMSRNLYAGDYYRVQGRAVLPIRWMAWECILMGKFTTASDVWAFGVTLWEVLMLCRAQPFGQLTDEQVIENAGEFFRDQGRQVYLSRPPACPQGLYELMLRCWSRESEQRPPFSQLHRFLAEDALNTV
DDR1b-ΔECD-Cys-TM1 (Q08345-1, form named): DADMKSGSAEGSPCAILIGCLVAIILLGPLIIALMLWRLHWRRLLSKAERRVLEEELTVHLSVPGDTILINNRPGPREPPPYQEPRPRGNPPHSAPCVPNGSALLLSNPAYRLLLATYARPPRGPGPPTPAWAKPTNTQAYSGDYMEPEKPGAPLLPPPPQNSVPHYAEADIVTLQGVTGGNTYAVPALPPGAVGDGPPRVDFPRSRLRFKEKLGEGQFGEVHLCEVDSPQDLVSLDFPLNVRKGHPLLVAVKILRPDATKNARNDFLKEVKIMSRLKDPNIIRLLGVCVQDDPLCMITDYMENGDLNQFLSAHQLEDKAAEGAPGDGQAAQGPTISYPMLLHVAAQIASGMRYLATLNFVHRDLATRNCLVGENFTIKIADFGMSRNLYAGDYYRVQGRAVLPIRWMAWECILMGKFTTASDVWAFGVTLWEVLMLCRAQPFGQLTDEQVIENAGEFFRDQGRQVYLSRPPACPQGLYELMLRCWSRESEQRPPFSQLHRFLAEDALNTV

Assays:
Experiment in all cases: cross-linking; disulphide cross-link through the engineered cysteine T416C; constructs transiently expressed in HEK293; cells lysed with 30 mM NEM; non-reducing SDS-PAGE (5% or 7.5%) and Western blot with anti-DDR1
[1] = biological target: DDR1b-KD-Cys (K655A/T416C) (UniProt Q08345)
DDR1b-L152E/T416C = DDR1b-L152E/T416C (UniProt Q08345)
DDR1b-R32E/T416C = DDR1b-R32E/T416C (UniProt Q08345)
DDR1b-W53A/T416C = DDR1b-W53A/T416C (UniProt Q08345)
DDR1b-ΔECD-Cys = DDR1b-ΔECD-Cys (UniProt Q08345)
DDR1b-ΔECD-Cys-TM1 = DDR1b-ΔECD-Cys-TM1 (UniProt Q08345)

Substance: DDR1b-L152E/T416C (from UniProt Q08345-1 19-913) (receptor)
binding (DDR1b-L152E/T416C): binds

Substance: DDR1b-R32E/T416C (from UniProt Q08345-1 19-913) (receptor)
binding (DDR1b-R32E/T416C): binds

Substance: DDR1b-W53A/T416C (from UniProt Q08345-1 19-913) (receptor)
binding (DDR1b-W53A/T416C): binds

Substance: DDR1b-ΔECD-Cys (from UniProt Q08345-1 411-913) (domain or fragment)
binding (DDR1b-ΔECD-Cys): binds

The next lines start with the values.

binding [1]: binds
Substance: DDR1b-KD-Cys (K655A/T416C) (from UniProt Q08345-1 19-913) (receptor)

binding (DDR1b-ΔECD-Cys-TM1): binds
Substance: DDR1b-ΔECD-Cys-TM1 (from UniProt Q08345-1 411-913) (domain or fragment)
